The assay has as its target p21 (encoded by the CDKN1A gene) (human (endogenous in HeLa and HCT116)) (UniProt P38936). Description: proximity ligation; fixed, permeabilised cells; primary antibodies against NPM1 and p21; cells transfected with siCtrl or siFANCA, with or without actinomycin D overnight; single primary antibodies as negative controls.

By UniProt entry, the sequences of proteins in these tests, tags left out.
UniProt P38936: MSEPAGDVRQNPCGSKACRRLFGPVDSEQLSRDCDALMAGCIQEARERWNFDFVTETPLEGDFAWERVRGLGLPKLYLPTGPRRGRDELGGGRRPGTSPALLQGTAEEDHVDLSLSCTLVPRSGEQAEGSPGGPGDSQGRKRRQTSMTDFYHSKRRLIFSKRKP
UniProt P06748: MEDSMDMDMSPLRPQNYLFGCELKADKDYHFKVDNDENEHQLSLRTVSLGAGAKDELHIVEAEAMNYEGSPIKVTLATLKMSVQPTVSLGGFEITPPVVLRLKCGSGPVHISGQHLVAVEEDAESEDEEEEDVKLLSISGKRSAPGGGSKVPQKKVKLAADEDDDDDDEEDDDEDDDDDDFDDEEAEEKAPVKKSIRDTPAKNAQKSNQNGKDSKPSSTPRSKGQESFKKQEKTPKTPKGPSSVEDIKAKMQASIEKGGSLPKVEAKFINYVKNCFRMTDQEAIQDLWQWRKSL

These are yes or no findings as the source states them, for the method shown. Binding seen in cells or lysates may run through a third protein. Some entries that bind do so weakly or less than the wild type.

For “nucleolar protein NPM1 (from UniProt P06748 1-294)”, the binding entry is on record as “binds”.

Source of the values: PMC11575784.
